PubChem BioAssay AID1259254, NCATS | 2017

Purpose: 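Genome-wide screen for genes that prevent DNA re-replication in cancer cells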 (primary screen)
Cell system: human HCT116 colorectal cancer cells
Knock-down reagent: single siRNA against human genes
Duration: 3 days
Detection: 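Imaged Hoechst DNA stain sorts each cell into a cycle phase by DNA amount; per plate, G2 fraction set to 0% for non-targeting and 100% for GMNN siRNA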
Reading the numbers: G2 robust z-score and G2 cells, % of GMNN control: higher = more G2 cells, more excess DNA replication
Hit rule: 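Active siRNAs have a G2 robust z of 5 or more median absolute deviations over the median, which in these data means about 38% or higher of GMNN control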
The whole screen tested about 59,000 reagents; below is a random part of them. Of all reagents, about 1,550 (2.6%) are marked active. 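G2 share is only a proxy for re-replication; each gene was hit by three separate siRNAs, and active genes were retested.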 The numbers tell different reagents against one gene apart. Not all columns of the deposit are shown. No sequences are given here. The record does not give: the amount of reagent.

UGT1A10 (UDP glucuronosyltransferase family 1 member A10) #1
- G2 robust z-score: -0.56
- G2 cells, % of GMNN control: -0.973
- Call: inactive

UGT1A10 (UDP glucuronosyltransferase family 1 member A10) #2
- G2 robust z-score: 0.47
- G2 cells, % of GMNN control: 6.27
- Call: inactive

UGT1A10 (UDP glucuronosyltransferase family 1 member A10) #3
- G2 robust z-score: 1.36
- G2 cells, % of GMNN control: 12.5
- Call: inactive

LGR6 (leucine rich repeat containing G protein-coupled receptor 6) #1
- G2 robust z-score: 4.16
- G2 cells, % of GMNN control: 32.2
- Call: inactive

LGR6 (leucine rich repeat containing G protein-coupled receptor 6) #2
- G2 robust z-score: 1.67
- G2 cells, % of GMNN control: 14.7
- Call: inactive

LGR6 (leucine rich repeat containing G protein-coupled receptor 6) #3
- G2 robust z-score: -0.928
- G2 cells, % of GMNN control: -3.56
- Call: inactive

BBS7 (Bardet-Biedl syndrome 7) #1
- G2 robust z-score: -0.493
- G2 cells, % of GMNN control: -0.503
- Call: inactive

BBS7 (Bardet-Biedl syndrome 7) #2
- G2 robust z-score: -0.128
- G2 cells, % of GMNN control: 2.07
- Call: inactive

BBS7 (Bardet-Biedl syndrome 7) #3
- G2 robust z-score: -0.319
- G2 cells, % of GMNN control: 0.724
- Call: inactive

Part of the list above, limited to “G2 robust z-score”.
UGT1A10 (UDP glucuronosyltransferase family 1 member A10) #2: 0.47
UGT1A10 (UDP glucuronosyltransferase family 1 member A10) #3: 1.36

Further entries follow:
IL2RA (interleukin 2 receptor subunit alpha) #1
- G2 robust z-score: -0.875
- G2 cells, % of GMNN control: -3.19
- Call: inactive

IL2RA (interleukin 2 receptor subunit alpha) #2
- G2 robust z-score: 0.51
- G2 cells, % of GMNN control: 6.56
- Call: inactive

IL2RA (interleukin 2 receptor subunit alpha) #3
- G2 robust z-score: 0.189
- G2 cells, % of GMNN control: 4.29
- Call: inactive

RPLP2 (ribosomal protein lateral stalk subunit P2) #1
- G2 robust z-score: 2.57
- G2 cells, % of GMNN control: 21
- Call: inactive

RPLP2 (ribosomal protein lateral stalk subunit P2) #2
- G2 robust z-score: 0.865
- G2 cells, % of GMNN control: 9.05
- Call: inactive

RPLP2 (ribosomal protein lateral stalk subunit P2) #3
- G2 robust z-score: 0.93
- G2 cells, % of GMNN control: 9.51
- Call: inactive

PITX3 (paired like homeodomain 3) #1
- G2 robust z-score: -0.976
- G2 cells, % of GMNN control: -3.9
- Call: inactive

PITX3 (paired like homeodomain 3) #2
- G2 robust z-score: 2.61
- G2 cells, % of GMNN control: 21.3
- Call: inactive

PITX3 (paired like homeodomain 3) #3
- G2 robust z-score: 0.0943
- G2 cells, % of GMNN control: 3.63
- Call: inactive

SDS (serine dehydratase) #1
- G2 robust z-score: -1.27
- G2 cells, % of GMNN control: -5.95
- Call: inactive

SDS (serine dehydratase) #2
- G2 robust z-score: 2.29
- G2 cells, % of GMNN control: 19.1
- Call: inactive

SDS (serine dehydratase) #3
- G2 robust z-score: 3.86
- G2 cells, % of GMNN control: 30.1
- Call: inactive

KRT28 (keratin 28) #1
- G2 robust z-score: 1.42
- G2 cells, % of GMNN control: 13
- Call: inactive

KRT28 (keratin 28) #2
- G2 robust z-score: -0.782
- G2 cells, % of GMNN control: -2.54
- Call: inactive

KRT28 (keratin 28) #3
- G2 robust z-score: 3.38
- G2 cells, % of GMNN control: 26.7
- Call: inactive
